The chains behind the UniProt entries cited, without tags or fusion partners.
UniProt Q08AI8: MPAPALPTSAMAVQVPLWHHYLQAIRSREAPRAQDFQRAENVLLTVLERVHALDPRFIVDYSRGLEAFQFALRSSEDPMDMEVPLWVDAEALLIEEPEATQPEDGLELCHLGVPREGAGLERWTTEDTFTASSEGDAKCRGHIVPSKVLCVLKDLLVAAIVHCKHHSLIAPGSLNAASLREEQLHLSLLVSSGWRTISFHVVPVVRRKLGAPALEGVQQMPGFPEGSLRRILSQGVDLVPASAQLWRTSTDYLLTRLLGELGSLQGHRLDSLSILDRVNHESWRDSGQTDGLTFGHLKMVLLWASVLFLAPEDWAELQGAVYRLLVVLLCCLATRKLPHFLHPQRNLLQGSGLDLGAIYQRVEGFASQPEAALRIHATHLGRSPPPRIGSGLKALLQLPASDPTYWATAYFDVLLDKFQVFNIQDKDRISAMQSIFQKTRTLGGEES
UniProt Q92817: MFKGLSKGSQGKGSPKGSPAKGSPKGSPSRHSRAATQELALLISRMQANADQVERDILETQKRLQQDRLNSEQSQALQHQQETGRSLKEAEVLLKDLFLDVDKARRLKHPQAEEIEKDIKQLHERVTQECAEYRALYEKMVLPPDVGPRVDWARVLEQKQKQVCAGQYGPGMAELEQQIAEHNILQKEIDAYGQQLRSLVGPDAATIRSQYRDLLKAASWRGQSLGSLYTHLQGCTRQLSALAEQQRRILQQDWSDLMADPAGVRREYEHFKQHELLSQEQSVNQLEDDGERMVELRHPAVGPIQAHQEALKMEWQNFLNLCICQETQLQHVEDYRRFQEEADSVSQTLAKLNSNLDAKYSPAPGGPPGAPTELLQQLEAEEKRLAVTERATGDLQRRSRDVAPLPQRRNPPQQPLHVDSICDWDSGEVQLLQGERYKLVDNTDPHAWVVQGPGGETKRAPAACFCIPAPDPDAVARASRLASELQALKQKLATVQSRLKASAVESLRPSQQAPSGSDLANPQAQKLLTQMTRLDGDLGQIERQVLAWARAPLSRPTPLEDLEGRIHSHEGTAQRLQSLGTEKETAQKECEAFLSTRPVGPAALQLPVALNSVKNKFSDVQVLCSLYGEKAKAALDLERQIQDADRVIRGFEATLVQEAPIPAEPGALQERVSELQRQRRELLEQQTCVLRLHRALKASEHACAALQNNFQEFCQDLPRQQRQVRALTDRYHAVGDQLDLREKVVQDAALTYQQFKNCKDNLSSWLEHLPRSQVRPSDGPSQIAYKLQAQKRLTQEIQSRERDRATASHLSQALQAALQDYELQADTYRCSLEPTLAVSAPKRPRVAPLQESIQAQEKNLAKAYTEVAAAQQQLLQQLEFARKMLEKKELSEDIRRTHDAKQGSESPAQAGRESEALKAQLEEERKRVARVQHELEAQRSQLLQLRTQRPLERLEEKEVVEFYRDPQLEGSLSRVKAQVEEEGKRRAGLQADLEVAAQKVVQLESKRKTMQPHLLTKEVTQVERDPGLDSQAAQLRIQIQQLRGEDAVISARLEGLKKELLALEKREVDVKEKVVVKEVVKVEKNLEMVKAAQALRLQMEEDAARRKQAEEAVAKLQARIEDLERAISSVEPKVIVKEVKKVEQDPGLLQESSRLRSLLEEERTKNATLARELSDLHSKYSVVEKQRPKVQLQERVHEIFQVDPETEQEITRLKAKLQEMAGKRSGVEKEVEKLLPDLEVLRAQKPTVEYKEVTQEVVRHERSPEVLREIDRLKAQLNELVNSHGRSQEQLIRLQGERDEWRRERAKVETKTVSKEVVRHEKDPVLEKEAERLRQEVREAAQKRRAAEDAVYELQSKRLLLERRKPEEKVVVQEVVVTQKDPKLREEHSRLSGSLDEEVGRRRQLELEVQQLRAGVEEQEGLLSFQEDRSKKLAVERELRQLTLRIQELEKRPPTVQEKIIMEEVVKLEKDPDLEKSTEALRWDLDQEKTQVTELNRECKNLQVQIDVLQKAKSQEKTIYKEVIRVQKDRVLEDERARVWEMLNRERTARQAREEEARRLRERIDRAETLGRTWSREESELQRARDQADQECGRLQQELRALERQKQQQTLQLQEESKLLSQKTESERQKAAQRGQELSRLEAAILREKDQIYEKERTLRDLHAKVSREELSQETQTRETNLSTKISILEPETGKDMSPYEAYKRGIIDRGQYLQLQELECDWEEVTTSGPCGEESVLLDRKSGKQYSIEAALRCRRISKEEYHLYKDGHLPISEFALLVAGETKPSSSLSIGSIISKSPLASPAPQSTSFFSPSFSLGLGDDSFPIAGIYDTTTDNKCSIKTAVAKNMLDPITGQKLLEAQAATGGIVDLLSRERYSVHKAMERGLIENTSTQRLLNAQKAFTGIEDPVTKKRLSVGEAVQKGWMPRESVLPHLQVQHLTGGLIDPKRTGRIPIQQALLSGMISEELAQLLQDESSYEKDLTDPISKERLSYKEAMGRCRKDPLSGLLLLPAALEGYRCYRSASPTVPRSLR
UniProt O60437: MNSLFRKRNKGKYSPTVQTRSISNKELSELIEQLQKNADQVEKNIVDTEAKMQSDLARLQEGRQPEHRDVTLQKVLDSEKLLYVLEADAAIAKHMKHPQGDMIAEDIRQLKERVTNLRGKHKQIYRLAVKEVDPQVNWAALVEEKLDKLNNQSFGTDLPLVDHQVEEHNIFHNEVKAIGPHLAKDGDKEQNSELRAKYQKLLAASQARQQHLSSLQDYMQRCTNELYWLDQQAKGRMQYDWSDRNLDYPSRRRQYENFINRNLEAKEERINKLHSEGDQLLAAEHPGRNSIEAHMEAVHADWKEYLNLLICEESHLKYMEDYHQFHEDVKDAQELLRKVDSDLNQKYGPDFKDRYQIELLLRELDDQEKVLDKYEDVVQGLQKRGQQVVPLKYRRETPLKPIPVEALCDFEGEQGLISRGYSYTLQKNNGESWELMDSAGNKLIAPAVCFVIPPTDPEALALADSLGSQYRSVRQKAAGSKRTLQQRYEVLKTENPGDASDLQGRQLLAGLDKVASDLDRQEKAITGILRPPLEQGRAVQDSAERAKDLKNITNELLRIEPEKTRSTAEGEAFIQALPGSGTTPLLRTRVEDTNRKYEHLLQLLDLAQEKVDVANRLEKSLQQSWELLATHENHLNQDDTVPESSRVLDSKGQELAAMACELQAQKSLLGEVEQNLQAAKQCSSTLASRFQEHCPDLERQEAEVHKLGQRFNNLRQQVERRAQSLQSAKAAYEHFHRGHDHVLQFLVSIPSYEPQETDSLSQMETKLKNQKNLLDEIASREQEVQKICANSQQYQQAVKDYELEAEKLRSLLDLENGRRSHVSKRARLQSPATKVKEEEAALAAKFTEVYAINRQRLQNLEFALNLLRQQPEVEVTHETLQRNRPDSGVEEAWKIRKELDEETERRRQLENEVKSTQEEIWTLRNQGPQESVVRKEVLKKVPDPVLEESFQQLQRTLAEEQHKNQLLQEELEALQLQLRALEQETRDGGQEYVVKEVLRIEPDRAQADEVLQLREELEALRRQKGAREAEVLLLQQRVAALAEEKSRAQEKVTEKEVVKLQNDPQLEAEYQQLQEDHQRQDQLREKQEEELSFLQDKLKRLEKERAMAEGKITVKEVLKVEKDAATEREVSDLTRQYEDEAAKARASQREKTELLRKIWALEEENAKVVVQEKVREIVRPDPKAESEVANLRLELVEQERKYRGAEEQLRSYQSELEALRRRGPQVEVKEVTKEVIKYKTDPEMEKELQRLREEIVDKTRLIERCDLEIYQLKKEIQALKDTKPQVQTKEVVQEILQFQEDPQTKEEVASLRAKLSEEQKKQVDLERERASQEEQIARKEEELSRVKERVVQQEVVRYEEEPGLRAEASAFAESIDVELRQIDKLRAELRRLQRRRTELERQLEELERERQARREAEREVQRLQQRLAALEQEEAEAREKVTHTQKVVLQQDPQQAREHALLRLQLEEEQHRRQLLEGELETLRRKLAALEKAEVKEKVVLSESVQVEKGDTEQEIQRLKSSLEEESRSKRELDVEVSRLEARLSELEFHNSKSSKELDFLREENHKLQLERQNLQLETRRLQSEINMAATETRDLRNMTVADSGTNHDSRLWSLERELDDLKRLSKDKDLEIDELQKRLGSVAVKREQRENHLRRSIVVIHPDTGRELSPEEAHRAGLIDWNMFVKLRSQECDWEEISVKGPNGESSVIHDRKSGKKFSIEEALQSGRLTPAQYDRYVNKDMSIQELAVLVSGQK

According to article doi:10.1101/2022.01.19.476979 (bioRxiv, 2022):

Target: 3xHA-BASU-MAB21L4 (human) (UniProt Q08AI8)
Assay: proximity labelling

Substance | binding
envoplakin, endogenous in human skin organoids (from UniProt Q92817 1-2033) | binds
periplakin, endogenous in human skin organoids (from UniProt O60437 1-1756) | binds

No constants are given. Whether binding was seen depends on the method and setting. In cells and extracts the contact can be indirect. Here binding means that the protein was enriched with, or labelled near, the bait; the list need not be complete.
